According to PubChem BioAssay AID248 (DTP/NCI, 2004):
The list is a part of this screen's results and no random one: it gathers tests that were run many times, whatever their T/C, doses with no T/C, and many T/C values between a quarter and a half above the control. Further doses and runs are listed elsewhere. T/C gives the treated animals as a percentage of the vehicle group. Some doses have a count of surviving animals in place of a T/C: the source files T/C as zero there, which appears to mark a toxic dose or a test without result, not a measured value. Some survivor counts are full or nearly so, which does not show that the dose was tolerated: the source hardly ever lists a survival T/C far under the control, and the zero likely stands for such cases as well. Counts of survivors are from the toxicity check (mostly the fifth day) where no day follows; animals may have died later. Schedules are NCI's codes, taken here to give the interval after Q, in days (D) or hours (H), and the number of doses after X. Some entries were tested several times; their values stand side by side, smallest first. For survival time, the PubChem record calls one and a half times the control and up active, and a quarter to a half above the control has no call in these data; cut-offs in other NCI protocols can differ. Some T/C values are followed by the survivors on the day toxicity was checked, most often the fifth; where none is given, no animal had died by that day.

System: L1210 leukemia ip in BDF1 mice, survival T/C
Assay: NCI In Vivo Anticancer Drug Screen. Data for tumor model L1210 Leukemia (intraperitoneal) in B6D2F1 (BDF1) mice
Conditions: T/C endpoint: mean survival time, higher T/C = longer survival
[1] = dose: 200.0 mg/kg/injection, schedule: Q01DX001 (ip), vehicle: saline
[2] = dose: 400.0 mg/kg/injection, schedule: Q01DX001 (ip), vehicle: saline
[3] = dose: 300.0 mg/kg/injection, schedule: Q01DX001 (ip), vehicle: other
[4] = dose: 200.0 mg/kg/injection, schedule: Q01DX009 (ip), vehicle: saline with Tween-80
[5] = dose: 400.0 mg/kg/injection, schedule: Q04DX003 (ip), vehicle: saline with Tween-80
[6] = dose: 100.0 mg/kg/injection, schedule: Q04DX002 (ip), vehicle: Klucel (hydroxypropylcellulose) (HPC)
[7] = dose: 200.0 mg/kg/injection, schedule: Q04DX002 (ip), vehicle: Klucel (hydroxypropylcellulose) (HPC)
[8] = dose: 400.0 mg/kg/injection, schedule: Q04DX002 (ip), vehicle: Klucel (hydroxypropylcellulose) (HPC)
[9] = dose: 400.0 mg/kg/injection, schedule: Q04DX002 (ip), vehicle: saline with Tween-80
[10] = dose: 100.0 mg/kg/injection, schedule: Q04DX003 (ip), vehicle: saline
[11] = dose: 200.0 mg/kg/injection, schedule: Q04DX003 (ip), vehicle: saline
[12] = dose: 400.0 mg/kg/injection, schedule: Q04DX003 (ip), vehicle: saline

CCCCCCCCCCCCCCCC[N+]1(CC)CCCC1
survivor count (dose: 100.0 mg/kg/injection, schedule: Q04DX002 (ip), vehicle: saline): 0 of 3 | survivor count (dose: 200.0 mg/kg/injection, schedule: Q04DX002 (ip), vehicle: saline): 0 of 3 | survivor count (dose: 400.0 mg/kg/injection, schedule: Q04DX002 (ip), vehicle: saline): 0 of 3

Cc1cccc(C(=O)O)n1.[Cu+2]
survivor count (dose: 20.0 mg/kg/injection, schedule: Q01DX001 (ip), vehicle: saline): 2 of 4 | survivor count (dose: 40.0 mg/kg/injection, schedule: Q01DX001 (ip), vehicle: saline): 0 of 4 | survivor count (dose: 80.0 mg/kg/injection, schedule: Q01DX001 (ip), vehicle: saline): 0 of 4 | survivor count (dose: 100.0 mg/kg/injection, schedule: Q01DX001 (ip), vehicle: saline): 0 of 4 | survivor count [1]: 0 of 4 | survivor count [2]: 0 of 4

C=CCC(C)/C(C)=C(/C#N)C(=O)OCC (stereo not given)
survivor count [3]: 1 of 6

CC(C)OC(=O)Oc1cccc2c1C(=O)c1ccccc1C2=O
survivor count (dose: 400.0 mg/kg/injection, schedule: Q01DX009 (ip), vehicle: Klucel (hydroxypropylcellulose) (HPC)): 6 of 6

O=C1NC(=O)C(O)(C2(O)C(=O)NC(=O)NC2=O)C(=O)N1
survivor count (dose: 300.0 mg/kg/injection, schedule: Q01DX001 (ip), vehicle: carboxymethylcellulose (CMC)): 1 of 6

O=C(O)c1cc(C(=O)O)cc([N+](=O)[O-])c1
survivor count [4]: 6 of 6 | survivor count [5]: 3 of 6

Cc1ccc(S)cc1
survivor count (dose: 200.0 mg/kg/injection, schedule: Q01DX009 (ip), vehicle: saline): 3 of 6 | survivor count (dose: 400.0 mg/kg/injection, schedule: Q01DX009 (ip), vehicle: saline): 1 of 6

CC(=O)Oc1ccc(OC(C)=O)c2c1C(=O)C=CC2=O
survivor count (dose: 12.5 mg/kg/injection, schedule: Q04DX002 (ip), vehicle: alcohol): 0 of 3 | survivor count (dose: 25.0 mg/kg/injection, schedule: Q04DX002 (ip), vehicle: alcohol): 1 of 3 | survivor count [1]: 3 of 6 | survivor count [2]: 0 of 6

CCCCCC(C[N+](C)(C)C)C(=O)/C=C/c1ccc(Cl)c(Cl)c1 (stereo not given)
survivor count [6]: 0 of 3 | survivor count [7]: 0 of 3 | survivor count [8]: 0 of 3

CCOC(=O)c1ccc(NC(=S)NC(=O)c2ccccc2)cc1
survivor count [9]: 3 of 3

Nc1nc(N)c2nc(CNCCc3ccccc3)cnc2n1
survivor count (dose: 80.0 mg/kg/injection, schedule: Q01DX009 (ip), vehicle: Klucel (hydroxypropylcellulose) (HPC)): 1 of 5

CCC1COC(=S)N1 (stereo not given)
survivor count (dose: 25.0 mg/kg/injection, schedule: Q01DX009 (ip), vehicle: saline): 0 of 6 | survivor count (dose: 50.0 mg/kg/injection, schedule: Q04DX002 (ip), vehicle: saline with Tween-80): 0 of 3 | survivor count (dose: 75.0 mg/kg/injection, schedule: Q01DX001 (ip), vehicle: Klucel (hydroxypropylcellulose) (HPC)): 0 of 6 | survivor count (dose: 100.0 mg/kg/injection, schedule: Q04DX002 (ip), vehicle: saline with Tween-80): 0 of 3 | survivor count (dose: 150.0 mg/kg/injection, schedule: Q01DX001 (ip), vehicle: Klucel (hydroxypropylcellulose) (HPC)): 0 of 6 | survivor count (dose: 200.0 mg/kg/injection, schedule: Q04DX002 (ip), vehicle: saline with Tween-80): 0 of 3 | survivor count (dose: 300.0 mg/kg/injection, schedule: Q01DX001 (ip), vehicle: Klucel (hydroxypropylcellulose) (HPC)): 0 of 6 | survivor count [9]: 0 of 3

COC1C(c2ccccc2)NC(=O)C(Br)(C#N)C1c1ccccc1 (stereo not given)
survivor count (dose: 50.0 mg/kg/injection, schedule: Q01DX009 (ip), vehicle: saline with Tween-80): 3 of 3 | survivor count (dose: 100.0 mg/kg/injection, schedule: Q01DX009 (ip), vehicle: saline with Tween-80): 3 of 3 | survivor count [4]: 3 of 3

NCCc1ccc(OCc2ccccc2)c(OCc2ccccc2)c1
survivor count (dose: 50.0 mg/kg/injection, schedule: Q01DX009 (ip), vehicle: saline): 4 of 6 | survivor count [10]: 6 of 6 | survivor count [11]: 6 of 6 | survivor count [12]: 6 of 6

Cc1ccc(S(=O)(=O)N/N=C/C(=O)O)cc1
T/C (dose: 12.5 mg/kg/injection, schedule: Q01DX009 (ip), vehicle: water): 130 % of control | T/C (dose: 22.0 mg/kg/injection, schedule: Q01DX009 (ip), vehicle: other): 127 % of control | T/C (dose: 25.0 mg/kg/injection, schedule: Q01DX009 (ip), vehicle: water): 136 % of control | T/C (dose: 33.0 mg/kg/injection, schedule: Q01DX009 (ip), vehicle: other): 138 % of control | T/C (dose: 50.0 mg/kg/injection, schedule: Q01DX009 (ip), vehicle: other): 144 % of control | T/C (dose: 60.0 mg/kg/injection, schedule: Q01DX009 (ip), vehicle: saline): 149 % of control | T/C (dose: 75.0 mg/kg/injection, schedule: Q01DX001 (ip), vehicle: other): 135 % of control | T/C (dose: 75.0 mg/kg/injection, schedule: Q01DX009 (ip), vehicle: other): 147 % of control | T/C (dose: 100.0 mg/kg/injection, schedule: Q04DX003 (ip), vehicle: saline with Tween-80): 127 % of control | T/C (dose: 150.0 mg/kg/injection, schedule: Q01DX001 (ip), vehicle: other): 132 % of control | T/C (dose: 150.0 mg/kg/injection, schedule: Q01DX001 (ip), vehicle: saline): 144 % of control [5 of 6 alive] | T/C [4]: 127 % of control | survivor count (dose: 200.0 mg/kg/injection, schedule: Q01DX009 (ip), vehicle: water): 6 of 6 | T/C (dose: 200.0 mg/kg/injection, schedule: Q04DX003 (ip), vehicle: saline with Tween-80): 127 % of control | T/C [3]: 128 % of control | T/C (dose: 300.0 mg/kg/injection, schedule: Q01DX001 (ip), vehicle: saline): 134 % of control | T/C (dose: 400.0 mg/kg/injection, schedule: Q01DX009 (ip), vehicle: saline with Tween-80): 130 and 138 % of control | T/C [5]: 143 % of control | T/C (dose: 600.0 mg/kg/injection, schedule: Q04DX003 (ip), vehicle: saline with Tween-80): 127 % of control

CC([NH-])C(C)[NH-].[Cl][Pt+2][Cl] (stereo not given)
T/C (dose: 12.5 mg/kg/injection, schedule: Q04DX002 (ip), vehicle: Klucel (hydroxypropylcellulose) (HPC)): 144 % of control | survivor count (dose: 25.0 mg/kg/injection, schedule: Q04DX002 (ip), vehicle: Klucel (hydroxypropylcellulose) (HPC)): 3 of 3 | survivor count (dose: 50.0 mg/kg/injection, schedule: Q04DX002 (ip), vehicle: Klucel (hydroxypropylcellulose) (HPC)): 1 of 3 and 2 of 3 | survivor count [6]: 0 of 3 and 1 of 3 | survivor count [7]: 0 of 3 and 1 of 3 | survivor count [8]: 0 of 3

[CH3][Sn]([CH3])([CH3])[O][N+](=O)[O-]
survivor count (dose: 6.0 mg/kg/injection, schedule: Q04DX003 (ip), vehicle: saline): 0 of 6 | survivor count (dose: 12.5 mg/kg/injection, schedule: Q04DX003 (ip), vehicle: saline): 0 of 6 | survivor count (dose: 25.0 mg/kg/injection, schedule: Q04DX003 (ip), vehicle: saline): 0 of 6 | survivor count (dose: 50.0 mg/kg/injection, schedule: Q04DX003 (ip), vehicle: saline): 0 of 6 | survivor count [10]: 0 of 6 | survivor count [11]: 0 of 6 | survivor count [12]: 0 of 6

O=[N+]([O-])/C=C/c1cccc([N+](=O)[O-])c1
survivor count (dose: 100.0 mg/kg/injection, schedule: Q04DX003 (ip), vehicle: Klucel (hydroxypropylcellulose) (HPC)): 4 of 6 and 5 of 6 | survivor count (dose: 200.0 mg/kg/injection, schedule: Q04DX003 (ip), vehicle: Klucel (hydroxypropylcellulose) (HPC)): 5 of 6 | survivor count (dose: 400.0 mg/kg/injection, schedule: Q04DX003 (ip), vehicle: Klucel (hydroxypropylcellulose) (HPC)): 3 of 6
